Measurements published in publication PMC12244390.
No constants are given. Whether binding was seen depends on the method and setting. In cells and extracts the contact can be indirect. Some results given as binding are weak or reduced against the parent protein; the word gives no strength.

Sequences of proteins named here, by UniProt entry; tags and fusion partners are left off.
UniProt P61224: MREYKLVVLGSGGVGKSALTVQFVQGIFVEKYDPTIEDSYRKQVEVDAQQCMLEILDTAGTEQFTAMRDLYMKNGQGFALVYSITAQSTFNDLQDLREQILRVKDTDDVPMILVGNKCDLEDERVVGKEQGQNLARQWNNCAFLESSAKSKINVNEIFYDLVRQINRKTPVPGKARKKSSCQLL
UniProt O60260: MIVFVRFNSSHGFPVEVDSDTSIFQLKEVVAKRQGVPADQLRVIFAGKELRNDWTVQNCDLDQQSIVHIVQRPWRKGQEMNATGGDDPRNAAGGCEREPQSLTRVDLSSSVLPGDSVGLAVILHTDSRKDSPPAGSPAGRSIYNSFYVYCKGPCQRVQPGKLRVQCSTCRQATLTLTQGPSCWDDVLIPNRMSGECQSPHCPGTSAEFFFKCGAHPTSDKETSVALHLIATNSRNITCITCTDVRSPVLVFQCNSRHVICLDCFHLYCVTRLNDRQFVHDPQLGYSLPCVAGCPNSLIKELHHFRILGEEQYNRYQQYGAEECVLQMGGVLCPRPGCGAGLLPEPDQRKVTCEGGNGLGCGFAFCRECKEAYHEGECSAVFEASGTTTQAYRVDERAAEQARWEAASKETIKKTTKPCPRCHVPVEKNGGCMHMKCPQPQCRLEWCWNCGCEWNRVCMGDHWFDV

Key:
[1] = biological target: RAP1B (human (endogenous in LOVO)) (UniProt P61224); test: co-IP; endogenous proteins in LOVO cell lysate (also LOVO-shNC/LOVO-shFN1#1/LOVO-shFN1#2 knock-down cells); IP with anti-RAP1B antibody, IgG as negative control, 4°C overnight, protein A agarose; western blot
HA-RAP1B [2] = biological target: HA-RAP1B (UniProt P61224); test: co-IP; cells transfected with Flag-PARK2 and HA-RAP1B plasmids; IP with anti-HA antibody; immunoblot
HA-RAP1B [3] = biological target: HA-RAP1B (UniProt P61224); test: co-IP; 293 T cells co-transfected with HA-RAP1B, Flag-PARK2, and/or Myc-FN1; western blot of Flag, HA, Myc tagged proteins after immunoprecipitation

binding [1] | binding (HA-RAP1B [2]) | binding (HA-RAP1B [3]) | Substance
binds | – | – | PARK2 (from UniProt O60260 1-465) (enzyme)
– | binds | binds | Flag-PARK2 (from UniProt O60260 1-465) (enzyme)
